This is one part of the list.
Columns and labels:
Test in all cases: log2 fold change, soluble protein after heating vs DMSO (PISA); higher = thermal stabilisation; K562 cells, 10 uM, 30 min; active = over 0.2 and 3.5 SD of the protein, either way, in both replicates (recomputed)
[1] = compound: CC1=C2C(=CC=C1)N=C(N(C2=O)C3=CC=CC=C3C)CN4C=NC5=C(N=CN=C54)N
Method in brief: (§1)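 Aliquots of K562 cells (2×10^6 cells/mL) treated with 10 μM compound for 30 min were heated for 3 min over 48°C-58°C. After pooling and extraction in PBS with 0.5% NP-40 at 4°C, soluble protein from a 21,000xg, 90 min spin was quantified by TMTpro 16plex LC-MS/MS with channel sums equalised. Thermal stability is expressed against control samples, from duplicates, as a log2 fold change.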

Sequences of proteins named here, by UniProt entry; tags and fusion partners are left off. A change or cut given only in a name is not applied to a line headed by its entry.
UniProt Q9BUP0: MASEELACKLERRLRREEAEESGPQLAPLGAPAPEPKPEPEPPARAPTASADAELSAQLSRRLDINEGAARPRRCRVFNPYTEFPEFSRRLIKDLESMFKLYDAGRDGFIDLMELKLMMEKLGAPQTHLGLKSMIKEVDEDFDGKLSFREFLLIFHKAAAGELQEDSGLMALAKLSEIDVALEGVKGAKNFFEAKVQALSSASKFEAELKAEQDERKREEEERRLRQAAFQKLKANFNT
UniProt Q8NDI1: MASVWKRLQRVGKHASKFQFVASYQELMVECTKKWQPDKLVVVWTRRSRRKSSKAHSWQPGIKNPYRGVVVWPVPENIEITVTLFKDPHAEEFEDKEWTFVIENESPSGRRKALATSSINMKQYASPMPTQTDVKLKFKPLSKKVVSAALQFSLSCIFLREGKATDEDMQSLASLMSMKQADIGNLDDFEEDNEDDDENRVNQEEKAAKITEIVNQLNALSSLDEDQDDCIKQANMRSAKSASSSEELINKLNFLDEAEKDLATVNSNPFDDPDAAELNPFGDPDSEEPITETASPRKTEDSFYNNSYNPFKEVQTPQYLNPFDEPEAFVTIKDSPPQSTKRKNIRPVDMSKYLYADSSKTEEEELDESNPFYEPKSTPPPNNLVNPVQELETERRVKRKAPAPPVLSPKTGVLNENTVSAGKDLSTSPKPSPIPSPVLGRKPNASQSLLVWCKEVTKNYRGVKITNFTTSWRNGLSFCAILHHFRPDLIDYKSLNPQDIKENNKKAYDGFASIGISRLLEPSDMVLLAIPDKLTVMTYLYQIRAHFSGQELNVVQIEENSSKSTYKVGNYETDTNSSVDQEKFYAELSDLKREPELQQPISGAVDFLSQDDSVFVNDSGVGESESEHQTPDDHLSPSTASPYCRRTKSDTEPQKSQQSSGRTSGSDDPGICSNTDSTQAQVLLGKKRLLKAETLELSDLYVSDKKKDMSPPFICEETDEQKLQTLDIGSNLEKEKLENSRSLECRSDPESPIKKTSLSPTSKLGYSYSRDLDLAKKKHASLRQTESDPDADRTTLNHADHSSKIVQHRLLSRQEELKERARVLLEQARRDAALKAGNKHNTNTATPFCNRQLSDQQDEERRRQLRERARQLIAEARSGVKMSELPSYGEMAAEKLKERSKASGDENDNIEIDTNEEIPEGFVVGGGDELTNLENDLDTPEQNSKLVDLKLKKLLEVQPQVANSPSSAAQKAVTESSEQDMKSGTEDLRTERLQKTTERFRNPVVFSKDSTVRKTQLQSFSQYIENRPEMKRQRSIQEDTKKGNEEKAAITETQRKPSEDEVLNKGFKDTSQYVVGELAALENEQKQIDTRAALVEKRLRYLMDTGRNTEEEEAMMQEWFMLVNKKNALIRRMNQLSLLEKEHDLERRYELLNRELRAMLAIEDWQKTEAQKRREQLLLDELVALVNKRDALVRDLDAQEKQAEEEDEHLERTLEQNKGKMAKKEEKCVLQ
UniProt Q9Y6B2: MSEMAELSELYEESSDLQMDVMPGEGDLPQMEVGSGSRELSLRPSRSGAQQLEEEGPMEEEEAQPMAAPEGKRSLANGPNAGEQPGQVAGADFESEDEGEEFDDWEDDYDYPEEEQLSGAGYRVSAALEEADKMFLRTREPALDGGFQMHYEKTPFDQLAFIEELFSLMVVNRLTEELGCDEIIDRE
UniProt Q6ZTU2, whole entry, looked up: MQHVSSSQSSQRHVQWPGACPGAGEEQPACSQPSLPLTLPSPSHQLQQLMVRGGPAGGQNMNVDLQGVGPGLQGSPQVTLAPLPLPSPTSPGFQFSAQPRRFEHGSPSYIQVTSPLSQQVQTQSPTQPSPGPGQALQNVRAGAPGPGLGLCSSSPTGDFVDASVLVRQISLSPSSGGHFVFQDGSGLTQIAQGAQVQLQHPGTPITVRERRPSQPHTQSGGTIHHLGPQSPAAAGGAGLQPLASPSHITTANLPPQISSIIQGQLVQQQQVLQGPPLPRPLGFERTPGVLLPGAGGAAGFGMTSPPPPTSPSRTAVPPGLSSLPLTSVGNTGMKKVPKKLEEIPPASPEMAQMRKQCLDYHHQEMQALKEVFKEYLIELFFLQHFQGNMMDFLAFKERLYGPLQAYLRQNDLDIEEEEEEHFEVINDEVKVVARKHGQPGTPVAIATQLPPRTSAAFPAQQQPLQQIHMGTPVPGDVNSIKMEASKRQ
UniProt O43324: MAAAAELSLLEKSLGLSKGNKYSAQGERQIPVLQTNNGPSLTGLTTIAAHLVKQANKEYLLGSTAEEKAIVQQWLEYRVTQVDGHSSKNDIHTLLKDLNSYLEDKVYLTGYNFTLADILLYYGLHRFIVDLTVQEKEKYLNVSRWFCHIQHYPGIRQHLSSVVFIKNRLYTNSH
UniProt Q9NZJ5: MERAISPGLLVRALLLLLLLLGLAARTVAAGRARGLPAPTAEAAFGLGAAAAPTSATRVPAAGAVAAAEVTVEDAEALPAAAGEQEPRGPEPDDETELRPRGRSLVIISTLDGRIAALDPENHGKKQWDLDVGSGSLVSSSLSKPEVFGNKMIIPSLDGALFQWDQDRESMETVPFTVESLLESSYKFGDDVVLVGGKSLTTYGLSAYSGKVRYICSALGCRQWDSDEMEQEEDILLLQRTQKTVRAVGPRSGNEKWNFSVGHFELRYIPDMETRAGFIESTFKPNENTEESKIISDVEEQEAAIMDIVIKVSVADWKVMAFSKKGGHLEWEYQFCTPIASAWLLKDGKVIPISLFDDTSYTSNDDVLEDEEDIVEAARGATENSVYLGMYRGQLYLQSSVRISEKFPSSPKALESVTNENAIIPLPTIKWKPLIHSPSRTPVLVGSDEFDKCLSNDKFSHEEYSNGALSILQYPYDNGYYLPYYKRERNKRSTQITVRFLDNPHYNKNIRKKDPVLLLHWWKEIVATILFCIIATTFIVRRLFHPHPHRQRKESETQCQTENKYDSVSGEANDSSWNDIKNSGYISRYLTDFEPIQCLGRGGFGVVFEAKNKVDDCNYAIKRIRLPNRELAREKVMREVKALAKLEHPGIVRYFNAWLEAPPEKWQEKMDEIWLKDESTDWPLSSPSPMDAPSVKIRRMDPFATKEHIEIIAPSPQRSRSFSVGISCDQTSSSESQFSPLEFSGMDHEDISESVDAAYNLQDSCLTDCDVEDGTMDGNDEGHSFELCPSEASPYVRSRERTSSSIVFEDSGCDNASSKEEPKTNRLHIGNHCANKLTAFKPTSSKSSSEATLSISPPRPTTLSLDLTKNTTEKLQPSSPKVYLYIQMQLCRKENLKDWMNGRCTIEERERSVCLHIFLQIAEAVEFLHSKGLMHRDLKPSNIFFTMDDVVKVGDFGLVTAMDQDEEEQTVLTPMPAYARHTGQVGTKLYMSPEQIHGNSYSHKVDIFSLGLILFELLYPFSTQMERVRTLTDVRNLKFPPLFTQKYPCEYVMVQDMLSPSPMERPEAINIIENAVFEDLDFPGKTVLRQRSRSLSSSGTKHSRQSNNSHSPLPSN
UniProt Q96L91, whole entry, looked up: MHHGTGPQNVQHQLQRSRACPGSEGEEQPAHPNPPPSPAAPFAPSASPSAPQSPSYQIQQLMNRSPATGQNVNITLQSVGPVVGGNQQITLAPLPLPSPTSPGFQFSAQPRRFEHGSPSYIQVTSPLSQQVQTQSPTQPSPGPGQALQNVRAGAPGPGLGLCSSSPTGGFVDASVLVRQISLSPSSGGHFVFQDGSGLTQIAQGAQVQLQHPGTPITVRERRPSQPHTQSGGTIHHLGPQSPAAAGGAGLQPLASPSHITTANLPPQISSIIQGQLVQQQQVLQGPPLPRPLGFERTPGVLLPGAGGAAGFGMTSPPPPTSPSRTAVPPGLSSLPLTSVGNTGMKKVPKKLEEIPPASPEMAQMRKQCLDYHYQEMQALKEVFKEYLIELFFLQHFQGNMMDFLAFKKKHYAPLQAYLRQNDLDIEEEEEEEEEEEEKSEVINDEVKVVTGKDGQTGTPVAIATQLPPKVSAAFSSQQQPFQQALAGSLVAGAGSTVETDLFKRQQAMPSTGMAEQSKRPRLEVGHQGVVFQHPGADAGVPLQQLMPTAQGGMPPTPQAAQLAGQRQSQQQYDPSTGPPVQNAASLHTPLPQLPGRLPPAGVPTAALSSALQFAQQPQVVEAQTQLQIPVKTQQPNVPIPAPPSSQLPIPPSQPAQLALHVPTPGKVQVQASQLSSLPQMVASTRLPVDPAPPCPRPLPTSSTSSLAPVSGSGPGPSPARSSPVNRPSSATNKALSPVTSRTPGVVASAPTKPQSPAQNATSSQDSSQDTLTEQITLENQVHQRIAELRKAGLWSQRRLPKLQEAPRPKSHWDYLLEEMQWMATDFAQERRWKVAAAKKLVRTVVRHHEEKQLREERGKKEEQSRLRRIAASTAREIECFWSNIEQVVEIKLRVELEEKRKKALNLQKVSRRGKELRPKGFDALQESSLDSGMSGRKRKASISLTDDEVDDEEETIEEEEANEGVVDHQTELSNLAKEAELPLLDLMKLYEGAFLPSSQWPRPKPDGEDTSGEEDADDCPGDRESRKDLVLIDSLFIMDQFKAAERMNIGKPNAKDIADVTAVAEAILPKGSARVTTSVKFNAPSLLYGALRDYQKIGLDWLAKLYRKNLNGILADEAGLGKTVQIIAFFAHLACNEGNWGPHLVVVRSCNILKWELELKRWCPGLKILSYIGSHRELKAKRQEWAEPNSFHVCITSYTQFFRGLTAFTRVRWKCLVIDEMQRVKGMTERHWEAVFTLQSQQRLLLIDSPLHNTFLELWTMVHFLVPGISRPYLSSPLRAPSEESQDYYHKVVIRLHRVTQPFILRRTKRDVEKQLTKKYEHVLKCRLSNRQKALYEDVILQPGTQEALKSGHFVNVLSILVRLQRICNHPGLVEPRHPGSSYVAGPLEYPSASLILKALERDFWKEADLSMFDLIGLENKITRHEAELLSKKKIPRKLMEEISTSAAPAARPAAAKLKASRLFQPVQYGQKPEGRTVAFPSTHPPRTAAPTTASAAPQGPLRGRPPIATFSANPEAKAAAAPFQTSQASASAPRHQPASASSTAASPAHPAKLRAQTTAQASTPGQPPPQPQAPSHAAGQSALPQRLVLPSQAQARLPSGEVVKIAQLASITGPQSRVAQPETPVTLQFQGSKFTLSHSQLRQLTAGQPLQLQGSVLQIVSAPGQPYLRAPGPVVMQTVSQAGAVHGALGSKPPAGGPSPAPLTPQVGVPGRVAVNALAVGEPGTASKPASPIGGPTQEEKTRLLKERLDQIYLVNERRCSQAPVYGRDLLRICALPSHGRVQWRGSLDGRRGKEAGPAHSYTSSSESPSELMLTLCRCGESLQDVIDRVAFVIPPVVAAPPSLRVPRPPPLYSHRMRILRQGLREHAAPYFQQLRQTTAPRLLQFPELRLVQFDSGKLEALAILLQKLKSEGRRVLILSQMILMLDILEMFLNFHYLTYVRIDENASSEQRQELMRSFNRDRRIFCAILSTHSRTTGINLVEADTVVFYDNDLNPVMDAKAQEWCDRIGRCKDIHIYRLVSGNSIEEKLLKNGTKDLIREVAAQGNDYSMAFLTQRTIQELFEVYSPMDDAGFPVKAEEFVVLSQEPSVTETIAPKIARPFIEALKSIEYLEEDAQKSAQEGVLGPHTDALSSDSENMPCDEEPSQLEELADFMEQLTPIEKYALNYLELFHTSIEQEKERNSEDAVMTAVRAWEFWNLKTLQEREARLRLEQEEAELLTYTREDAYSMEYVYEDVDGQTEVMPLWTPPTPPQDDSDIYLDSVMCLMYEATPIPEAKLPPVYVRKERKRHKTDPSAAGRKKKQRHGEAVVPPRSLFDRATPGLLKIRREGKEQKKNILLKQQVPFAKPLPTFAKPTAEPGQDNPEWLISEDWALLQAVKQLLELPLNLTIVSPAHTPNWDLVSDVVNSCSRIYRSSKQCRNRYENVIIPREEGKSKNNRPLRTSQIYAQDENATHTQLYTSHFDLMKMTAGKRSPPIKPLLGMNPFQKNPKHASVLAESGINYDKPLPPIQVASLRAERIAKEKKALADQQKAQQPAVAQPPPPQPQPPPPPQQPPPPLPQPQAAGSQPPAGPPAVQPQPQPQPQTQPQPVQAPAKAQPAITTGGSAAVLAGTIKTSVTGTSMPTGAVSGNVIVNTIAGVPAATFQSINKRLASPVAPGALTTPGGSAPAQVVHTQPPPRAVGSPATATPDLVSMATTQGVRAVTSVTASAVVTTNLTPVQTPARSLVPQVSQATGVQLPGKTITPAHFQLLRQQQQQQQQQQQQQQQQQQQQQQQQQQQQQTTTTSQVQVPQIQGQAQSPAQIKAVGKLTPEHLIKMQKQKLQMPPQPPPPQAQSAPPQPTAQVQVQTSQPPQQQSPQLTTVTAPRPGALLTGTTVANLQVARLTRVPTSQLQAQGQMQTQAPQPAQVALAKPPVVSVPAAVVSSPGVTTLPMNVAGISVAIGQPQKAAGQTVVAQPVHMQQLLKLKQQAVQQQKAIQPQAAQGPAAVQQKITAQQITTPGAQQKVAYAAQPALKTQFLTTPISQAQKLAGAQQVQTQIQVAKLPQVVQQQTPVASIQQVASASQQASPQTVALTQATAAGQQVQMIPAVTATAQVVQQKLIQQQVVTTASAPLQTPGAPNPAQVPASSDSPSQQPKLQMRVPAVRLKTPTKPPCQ

[2] = compound: Cc1sc2c(c1C)C(c1ccc(Cl)cc1)=N[C@@H](CC(=O)OC(C)(C)C)c1nnc(C)n1-2
Method in brief: as §1

[3] = compound: CC1=C(SC2=C1C(=N[C@H](C3=NN=C(N32)C)CC(=O)N)C4=CC=C(C=C4)Cl)C
Method in brief: as §1

[4] = compound: c1ccc([C@@H]2C[C@H]2NC2CCNCC2)cc1
Method in brief: as §1

[5] = compound: C1=CC=C(C=C1)[C@H](COC2=CC3=C(C=C2)NC(=O)N3)NC(=O)C4=CC=CN(C4=O)CC5=CC(=C(C=C5)F)F
Method in brief: as §1

Measured: log2 fold change

ENKD1 (UniProt Q9H0I2)
inactive: [1] 0.163 | [2] -0.128

ELF1 (UniProt P32519)
inactive: [3] 0.008 | [2] 0.017 | [4] 0.007

EFR3A (UniProt Q14156)
inactive: [1] 0.12

EFHD1 (UniProt Q9BUP0)
inactive: [3] -0.029 | [1] 0.066 | [2] 0.031 | [4] 0.196

ENTR1 (UniProt Q96C92)
inactive: [1] 0.191

EML3 (UniProt Q32P44)
inactive: [5] -0.021 | [3] -0.12 | [2] 0.182 | [4] 0.01

EED, A0A5F9ZI63
inactive: [5] 0.002 | [3] 0.011 | [1] 0.03 | [2] -0.029 | [4] -0.006

EIF2B5 (UniProt Q13144)
inactive: [5] 0.008 | [3] -0.034 | [1] 0.012 | [2] 0.098 | [4] 0.001

ENAH (UniProt Q8N8S7)
inactive: [1] 0.238

EHBP1 (UniProt Q8NDI1)
inactive: [3] -0.163 | [2] 0.041 | [4] 0.229

ELAC1 (UniProt Q9H777)
inactive: [3] 0.123 | [1] 0.146 | [4] 0.059

EPB41, A0A2R8Y6D0
inactive: [5] 0.104 | [3] 0.058 | [1] -0.003 | [2] 0.035 | [4] 0.118

ELAVL4 (UniProt P26378)
inactive: [5] -0.07 | [3] -0.168 | [2] 0.13 | [4] 0.084

EID1 (UniProt Q9Y6B2)
inactive: [2] -0.135

EIF5A2 (UniProt Q9GZV4)
inactive: [5] -0.098 | [3] 0.053 | [4] -0.083

EEF1D isoform 3 (UniProt P29692)
inactive: [2] -0.694

ENTPD4 (UniProt Q9Y227)
inactive: [5] -0.033 | [2] 0.039

EIF3I (UniProt Q5TFK1)
inactive: [3] 0.08 | [2] -0.056 | [4] -0.018

EIF4B (UniProt F8VP89)
inactive: [5] -0.544 | [3] 0.026 | [4] 0.133

ELL (UniProt P55199)
inactive: [5] -0.22 | [3] -0.007 | [2] -0.289 | [4] -0.024

EP400P1 isoform 6 (UniProt Q6ZTU2)
inactive: [2] 0.068

EIF4G1 (UniProt Q04637)
inactive: [3] -0.032 | [1] 0.011 | [2] 0.098 | [4] -0.028

ENTPD7 (UniProt Q9NQZ7)
inactive: [5] 0.066 | [2] 0.173

EEF2K (UniProt O00418)
inactive: [3] 0.001 | [1] 0.145 | [4] -0.082

EEF1E1 (UniProt O43324)
inactive: [5] -0.003 | [3] 0.015 | [1] 0.026 | [2] 0.018 | [4] -0.108

EIF2B1 (UniProt Q14232)
inactive: [5] 0.028 | [3] 0.018 | [1] -0.029 | [2] -0.041 | [4] -0.003

EEF1A1P5 (UniProt Q5VTE0)
inactive: [5] -0.027 | [3] 0.035 | [1] 0.01 | [2] 0.103 | [4] 0.002

ELOVL7 (UniProt A1L3X0)
inactive: [3] 0.077 | [2] -0.066 | [4] -0.01

ENTPD6 (UniProt O75354)
inactive: [5] 0.022 | [3] -0.086 | [2] -0.021 | [4] 0.002

ENPP3 (UniProt O14638)
inactive: [5] 0.045 | [3] 0.005 | [1] 0.23 | [4] -0.021

EIF2AK3 (UniProt Q9NZJ5)
inactive: [5] -0.473 | [3] -0.027 | [2] -0.196 | [4] 0.059

Copied from above (ten entries):
ELAC1 (UniProt Q9H777)
inactive: [3] 0.123 | [1] 0.146 | [4] 0.059

EPB41, A0A2R8Y6D0
inactive: [5] 0.104 | [3] 0.058 | [1] -0.003 | [2] 0.035 | [4] 0.118

ELAVL4 (UniProt P26378)
inactive: [5] -0.07 | [3] -0.168 | [2] 0.13 | [4] 0.084

EID1 (UniProt Q9Y6B2)
inactive: [2] -0.135

EIF5A2 (UniProt Q9GZV4)
inactive: [5] -0.098 | [3] 0.053 | [4] -0.083

EEF1D isoform 3 (UniProt P29692)
inactive: [2] -0.694

ENTPD4 (UniProt Q9Y227)
inactive: [5] -0.033 | [2] 0.039

EIF3I (UniProt Q5TFK1)
inactive: [3] 0.08 | [2] -0.056 | [4] -0.018

EIF4B (UniProt F8VP89)
inactive: [5] -0.544 | [3] 0.026 | [4] 0.133

ELL (UniProt P55199)
inactive: [5] -0.22 | [3] -0.007 | [2] -0.289 | [4] -0.024

(continued)

EP400 (UniProt Q96L91)
inactive: [3] 0.152 | [4] -0.125

EFEMP1 (UniProt Q12805)
inactive: [3] -0.14 | [2] -0.203 | [4] 0.119

EIF2B3 (UniProt Q9NR50)
inactive: [5] 0.015 | [3] 0.003 | [1] -0.039 | [2] 0.041 | [4] -0.021
